Experimental data from paper doi:10.1101/2025.02.18.638898.
No constants are given. Whether binding was seen depends on the method and setting. Binding seen in cells or lysates may run through a third protein. Some results given as binding are weak or reduced against the parent protein; the word gives no strength.

Chains of the proteins cited; added tags and fusions are not shown.
UniProt Q15910: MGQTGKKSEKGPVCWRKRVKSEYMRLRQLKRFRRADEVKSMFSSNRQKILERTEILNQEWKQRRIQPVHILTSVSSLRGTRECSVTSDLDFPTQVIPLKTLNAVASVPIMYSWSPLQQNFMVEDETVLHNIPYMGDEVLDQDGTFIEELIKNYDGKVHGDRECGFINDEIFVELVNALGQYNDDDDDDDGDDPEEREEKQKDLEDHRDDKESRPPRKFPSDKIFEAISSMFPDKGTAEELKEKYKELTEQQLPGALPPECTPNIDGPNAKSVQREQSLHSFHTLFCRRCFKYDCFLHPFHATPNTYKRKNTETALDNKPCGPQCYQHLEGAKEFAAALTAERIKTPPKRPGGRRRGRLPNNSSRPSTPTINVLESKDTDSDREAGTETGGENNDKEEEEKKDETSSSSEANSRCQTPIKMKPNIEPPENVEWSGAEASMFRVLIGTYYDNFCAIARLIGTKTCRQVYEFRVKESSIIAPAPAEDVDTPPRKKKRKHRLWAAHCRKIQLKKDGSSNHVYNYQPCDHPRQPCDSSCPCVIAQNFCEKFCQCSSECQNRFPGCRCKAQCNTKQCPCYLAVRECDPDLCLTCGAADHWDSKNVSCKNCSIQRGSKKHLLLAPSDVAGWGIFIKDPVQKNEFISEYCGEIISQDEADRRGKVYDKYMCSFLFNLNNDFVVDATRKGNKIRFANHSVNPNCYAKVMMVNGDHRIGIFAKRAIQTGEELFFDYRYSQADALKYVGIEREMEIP
UniProt P42684: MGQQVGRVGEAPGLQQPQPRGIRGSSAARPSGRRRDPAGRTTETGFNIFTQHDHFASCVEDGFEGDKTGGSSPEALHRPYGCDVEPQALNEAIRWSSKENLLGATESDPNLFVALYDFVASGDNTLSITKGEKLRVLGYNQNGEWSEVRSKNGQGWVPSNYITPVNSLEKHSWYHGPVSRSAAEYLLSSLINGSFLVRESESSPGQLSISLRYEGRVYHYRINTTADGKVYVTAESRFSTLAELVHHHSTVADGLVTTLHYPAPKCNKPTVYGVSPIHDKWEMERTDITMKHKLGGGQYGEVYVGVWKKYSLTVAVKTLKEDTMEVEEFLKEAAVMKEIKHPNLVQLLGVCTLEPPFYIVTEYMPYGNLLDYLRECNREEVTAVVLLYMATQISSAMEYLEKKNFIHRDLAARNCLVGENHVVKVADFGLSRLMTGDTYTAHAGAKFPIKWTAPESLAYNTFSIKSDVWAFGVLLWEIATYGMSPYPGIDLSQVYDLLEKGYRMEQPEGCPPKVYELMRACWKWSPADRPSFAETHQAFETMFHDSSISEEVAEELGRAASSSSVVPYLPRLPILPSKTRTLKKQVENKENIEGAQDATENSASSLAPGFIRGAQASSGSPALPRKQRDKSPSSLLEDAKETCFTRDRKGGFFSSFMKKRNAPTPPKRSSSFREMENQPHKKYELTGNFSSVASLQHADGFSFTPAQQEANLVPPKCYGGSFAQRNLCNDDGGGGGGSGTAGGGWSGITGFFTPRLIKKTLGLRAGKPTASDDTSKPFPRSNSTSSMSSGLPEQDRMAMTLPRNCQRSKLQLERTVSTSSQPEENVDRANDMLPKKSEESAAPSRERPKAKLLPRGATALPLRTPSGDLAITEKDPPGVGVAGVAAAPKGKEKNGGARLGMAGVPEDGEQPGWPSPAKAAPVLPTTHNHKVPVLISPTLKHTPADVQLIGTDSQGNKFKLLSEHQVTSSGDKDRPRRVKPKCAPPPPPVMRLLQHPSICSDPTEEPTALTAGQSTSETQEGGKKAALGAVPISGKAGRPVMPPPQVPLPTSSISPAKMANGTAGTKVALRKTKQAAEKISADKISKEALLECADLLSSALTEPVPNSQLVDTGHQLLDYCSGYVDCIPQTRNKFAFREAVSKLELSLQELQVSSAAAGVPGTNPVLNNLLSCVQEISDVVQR
UniProt P00519: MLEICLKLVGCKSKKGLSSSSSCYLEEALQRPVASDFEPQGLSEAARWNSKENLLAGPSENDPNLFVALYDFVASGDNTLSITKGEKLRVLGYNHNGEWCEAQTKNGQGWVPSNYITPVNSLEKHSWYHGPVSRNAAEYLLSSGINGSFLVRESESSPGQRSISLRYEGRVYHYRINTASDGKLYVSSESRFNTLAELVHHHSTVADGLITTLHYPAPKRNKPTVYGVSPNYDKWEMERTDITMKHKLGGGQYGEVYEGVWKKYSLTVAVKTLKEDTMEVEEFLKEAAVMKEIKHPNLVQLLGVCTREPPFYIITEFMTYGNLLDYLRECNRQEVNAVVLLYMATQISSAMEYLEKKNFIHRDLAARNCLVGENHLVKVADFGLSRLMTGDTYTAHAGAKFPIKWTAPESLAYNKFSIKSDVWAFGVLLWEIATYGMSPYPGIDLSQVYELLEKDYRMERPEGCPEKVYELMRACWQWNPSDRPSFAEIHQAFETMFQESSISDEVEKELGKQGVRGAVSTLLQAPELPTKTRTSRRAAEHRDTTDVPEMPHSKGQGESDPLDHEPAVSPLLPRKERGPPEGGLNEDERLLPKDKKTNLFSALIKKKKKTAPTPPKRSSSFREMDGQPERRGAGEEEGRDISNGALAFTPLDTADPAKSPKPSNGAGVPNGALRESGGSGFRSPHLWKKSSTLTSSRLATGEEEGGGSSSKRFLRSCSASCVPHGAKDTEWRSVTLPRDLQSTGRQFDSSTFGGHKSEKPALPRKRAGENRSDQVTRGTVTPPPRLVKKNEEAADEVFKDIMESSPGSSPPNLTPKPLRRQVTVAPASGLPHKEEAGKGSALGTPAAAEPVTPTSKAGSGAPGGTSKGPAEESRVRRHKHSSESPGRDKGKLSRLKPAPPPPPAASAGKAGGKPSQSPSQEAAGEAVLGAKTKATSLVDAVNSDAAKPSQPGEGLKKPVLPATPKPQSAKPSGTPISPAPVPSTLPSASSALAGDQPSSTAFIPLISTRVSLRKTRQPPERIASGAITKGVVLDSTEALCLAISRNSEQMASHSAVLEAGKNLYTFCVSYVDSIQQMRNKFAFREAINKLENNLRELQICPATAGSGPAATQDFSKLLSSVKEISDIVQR
UniProt Q15022: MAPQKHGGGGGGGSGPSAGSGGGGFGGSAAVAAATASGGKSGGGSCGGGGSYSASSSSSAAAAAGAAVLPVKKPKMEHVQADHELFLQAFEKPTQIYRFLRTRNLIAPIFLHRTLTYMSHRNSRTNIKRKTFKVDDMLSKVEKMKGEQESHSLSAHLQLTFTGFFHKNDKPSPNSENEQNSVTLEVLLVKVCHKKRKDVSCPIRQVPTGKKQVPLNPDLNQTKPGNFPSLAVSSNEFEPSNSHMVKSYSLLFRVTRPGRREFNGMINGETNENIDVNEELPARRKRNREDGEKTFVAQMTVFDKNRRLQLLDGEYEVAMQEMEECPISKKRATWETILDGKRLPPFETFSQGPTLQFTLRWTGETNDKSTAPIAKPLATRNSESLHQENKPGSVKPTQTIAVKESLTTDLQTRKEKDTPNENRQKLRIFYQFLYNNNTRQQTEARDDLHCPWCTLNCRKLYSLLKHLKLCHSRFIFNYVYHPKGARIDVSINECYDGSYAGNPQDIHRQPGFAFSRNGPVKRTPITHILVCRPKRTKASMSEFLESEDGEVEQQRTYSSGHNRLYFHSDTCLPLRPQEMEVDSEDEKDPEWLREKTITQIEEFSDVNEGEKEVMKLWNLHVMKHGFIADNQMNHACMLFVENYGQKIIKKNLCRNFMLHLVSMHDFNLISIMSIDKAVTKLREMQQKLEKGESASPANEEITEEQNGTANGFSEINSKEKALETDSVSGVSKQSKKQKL

What was measured:
[1] = target: endogenous EZH2 (SUM159 cells) (human (endogenous in SUM159)) (UniProt Q15910); test: co-IP
[2] = target: ABL2 eGFP wildtype (pN1-ABL2-eGFP WT) (UniProt P42684); test: co-IP

Row | Substance | binding [1] | binding [2]
1 | endogenous ABL1 (SUM159 cells) (from UniProt P00519 1-1130) | no binding | 
2 | endogenous ABL2 (SUM159 cells) (from UniProt P42684 1-1182) | binds | 
3 | endogenous SUZ12 (HEK293T cells) (from UniProt Q15022 1-739) |  | binds
